Laboratory results as given in PMC7862700.
The entries are a selection whose mix differs from that of the whole data set. At the low end of the ranking, values are background and their order means little.

Target: SPI1 (UniProt P17947)
Assay: DAPPL (digital affinity profiling via proximity ligation, sequencing)
Settings: 10 mM Tris-HCl pH 7.5, 50 mM NaCl, 1 mM DTT, 4% glycerol, room temperature, 30 min; GST-TFs on glutathione beads, 16-mer random dsDNA library, 0.1% …; high values mean tight binding; double strand, one strand shown; scale: fold enrichment (6-mer frequency, TF over GST control)

GGTGCA was tested. Which binding signal did it give?
The binding signal was 0.826.

CGGGTT was tested. Which binding signal did it give?
Its binding signal is 0.851.

Which binding signal does the source give for ACCGGG here?
The binding signal was 0.45.

With AGGGCG as the sequence, how does the binding signal read?
Its binding signal is 0.552.

Which binding signal does the source give for GAGACT here?
Its binding signal is 0.354.

Which binding signal does the source give for ACGAGG here?
Its binding signal is 0.704.

CGCGTG was tested. Which binding signal did it give?
The binding signal was 0.697.

Which binding signal does the source give for AGGGGC here?
The binding signal was 0.714.

Which binding signal does the source give for GACAAA here?
The binding signal was 0.878.

Which binding signal does the source give for GTAGGG here?
The binding signal was 0.747.

TGGCGG was tested. Which binding signal did it give?
Its binding signal is 0.823.

How did the binding signal turn out when GCATCG was run?
Its binding signal is 0.833.

Which binding signal does the source give for ATGTCG here?
Its binding signal is 0.666.

How did the binding signal turn out when CGCTGA was run?
Its binding signal is 0.821.

For GAGTGA, which binding signal is on record?
Its binding signal is 0.375.

Which binding signal does the source give for CGCCAG here?
The binding signal was 0.659.

Which binding signal does the source give for GAGCTA here?
The binding signal was 0.972.

With ATCGTG as the sequence, how does the binding signal read?
Its binding signal is 0.426.

For GTAGAC, which binding signal is on record?
Its binding signal is 0.757.

For TCAGGC, which binding signal is on record?
Its binding signal is 0.707.

Which binding signal does the source give for AGGTGA here?
Its binding signal is 0.529.

With GCGGAT as the sequence, how does the binding signal read?
Its binding signal is 0.858.

With TCGGGA as the sequence, how does the binding signal read?
The binding signal was 0.381.

With GCCGTG as the sequence, how does the binding signal read?
Its binding signal is 0.232.

With AGCGCA as the sequence, how does the binding signal read?
The binding signal was 0.894.

Which binding signal does the source give for AGTTCG here?
The binding signal was 0.752.

With ACGCAT as the sequence, how does the binding signal read?
Its binding signal is 0.766.

With TGTGAG as the sequence, how does the binding signal read?
The binding signal was 0.354.

AGGGAC was tested. Which binding signal did it give?
The binding signal was 0.736.

With TCGGGG as the sequence, how does the binding signal read?
Its binding signal is 0.427.

How did the binding signal turn out when CCAGTT was run?
The binding signal was 0.693.

CGGGAT was tested. Which binding signal did it give?
Its binding signal is 0.612.

For GACAGT, which binding signal is on record?
Its binding signal is 0.446.

Which binding signal does the source give for GAACGT here?
The binding signal was 0.39.

Which binding signal does the source give for GGCAAG here?
The binding signal was 0.704.

How did the binding signal turn out when GTCAGC was run?
Its binding signal is 0.747.

Which binding signal does the source give for GAAGAC here?
The binding signal was 0.868.

With GGTCCG as the sequence, how does the binding signal read?
Its binding signal is 0.766.

GTCGCT was tested. Which binding signal did it give?
The binding signal was 0.798.

Which binding signal does the source give for AGCGGA here?
The binding signal was 1.26.
